Measured values published in patent US12102667B2, “Polypeptides and antibiotics against gram-negative bacterium comprising the same” (priority 2021, dated 2024).
At least one compound was matched to its structure with a doubt left. Some entries share one result that the patent states for a list of compounds.

System: E. coli
Test: Checkerboard assay (MIC in combination, FIC index)
Type: cell-based, Escherichia coli
Settings: antibiotic combined with LNT113; E. coli strains overall
Experimental: LNT113 was vertically diluted 2-fold and the antibiotic was serially diluted horizontally in a 96-well plate. Bacterium at a concentration of 10^6 CFU/ml were added to each well in a CAA medium. […] The fractional inhibitory concentration (FIC) for the LNT113 or antibiotic was calculated by dividing the MIC of two drugs by combining it with the MIC of each drug alone. […] The FICI was considered as a synergistic effect ≤0.5, an additive >0.5 ˜≤1, an independent effect (indifference)>1.0 ˜≤2, and an antagonistic effect (antagonism) >2.

| SMILES | combination effect with LNT113 (FICI class) | combination effect with LNT113, in words |
| --- | --- | --- |
| CN(C)c1cc(NC(=O)CNC(C)(C)C)c(O)c2c1C[C@H]1C[C@H]3[C@H](N(C)C)C(O)=C(C(N)=O)C(=O)[C@@]3(O)C(O)=C1C2=O [Tigecycline] | additive (an additive >0.5 ˜≤1) | – |
| O=C(N[C@H](CO)[C@H](O)c1ccc([N+](=O)[O-])cc1)C(Cl)Cl [Chloramphenicol] | additive (an additive >0.5 ˜≤1) | – |
| CC[C@H]1OC(=O)[C@H](C)[C@@H](O[C@H]2C[C@@](C)(OC)[C@@H](O)[C@H](C)O2)[C@H](C)[C@@H](O[C@@H]2O[C@H](C)C[C@H](N(C)C)[C@H]2O)[C@](C)(O)C[C@@H](C)CN(C)[C@H](C)[C@@H](O)[C@]1(C)O [Azithromycin] | additive (an additive >0.5 ˜≤1) | – |
| C[C@@H](O)[C@H]1C(=O)N2C(C(=O)O)=C(S[C@@H]3CN[C@H](C(=O)N(C)C)C3)[C@H](C)[C@H]12 [Meropenem] | additive (an additive >0.5 ˜≤1) | – |
| NC[C@H]1O[C@H](O[C@H]2[C@H](O)[C@@H](O[C@H]3O[C@H](CO)[C@@H](O)[C@H](N)[C@H]3O)[C@H](N)C[C@@H]2N)[C@H](O)[C@@H](O)[C@@H]1O [Kanamycin] | – | Neither ceftazidime and kanamycin showed a synergistic or additive effect |
